Here are results for seven molecules from US20230192861A1.

Chains of the proteins cited; added tags and fusions are not shown. Lines headed by an entry give the natural chain unless they say otherwise; changes in a name come on top.
UniProt Q5ZPR3: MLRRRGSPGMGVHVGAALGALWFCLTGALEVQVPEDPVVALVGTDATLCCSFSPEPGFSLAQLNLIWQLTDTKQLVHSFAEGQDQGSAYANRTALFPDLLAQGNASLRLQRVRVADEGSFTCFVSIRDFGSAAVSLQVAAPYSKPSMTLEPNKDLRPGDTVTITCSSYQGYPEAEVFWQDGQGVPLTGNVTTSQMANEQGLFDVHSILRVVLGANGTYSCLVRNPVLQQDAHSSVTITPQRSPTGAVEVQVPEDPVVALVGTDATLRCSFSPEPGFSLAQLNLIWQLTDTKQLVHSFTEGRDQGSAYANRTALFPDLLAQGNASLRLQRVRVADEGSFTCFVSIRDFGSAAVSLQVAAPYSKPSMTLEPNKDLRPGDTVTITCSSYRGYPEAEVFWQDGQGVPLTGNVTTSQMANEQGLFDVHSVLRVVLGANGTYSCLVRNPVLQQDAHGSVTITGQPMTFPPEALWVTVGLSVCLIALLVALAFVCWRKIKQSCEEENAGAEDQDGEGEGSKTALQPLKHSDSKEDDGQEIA

Where a chain is given by its changes, count along the chain named. Numbers in names are those of the source. These are yes or no findings as the source states them, for the method shown. A result given as binding can be weak or reduced; the word gives no strength.

The labels stand for the following.
B1: B5 soluble monoclonal scFv (phage library clone) (scFv, V domains shown)
VH: EVQLLESGGGLVQPGGSLRLSCAASGFTFSDYAMSWVRQAPGKGLEWVSSISSGSGSIYYADSVKGRFTISRDNSKNTLYLQMNSLRAEDTAVYYCAKNLIPLDYWGQGTLVTVSS
VL: QSVLTQPPSASGTPGQRVTISCSGSSSNIGSNAVSWYQQLPGTAPKLLIYYNSHRPSGVPDRFSGSKSGTSASLAISGLRSEDEADYYCGSWDASLNAYVFGGGTKLTVL
B2: C4I soluble monoclonal scFv (phage library clone) (scFv, V domains shown)
VH: B1 VH with D31G, A33Y, S50L, S53P, G54S, N99G, I101T, P102K, L103F
VL: B1 VL with S23T, A33D, Y51A, A94D, N97S, A98G
B3: 10F11 soluble monoclonal scFv (phage library clone) (scFv, V domains shown)
VH: EVQLLESGGGLVQPGGSLRLSCAASGFTFSSYGMSWVRQAPGKGLEWVSGIYSGGSSKYYADSVKGRFTISRDNSKNTLYLQMNSLRAEDTAVYYCAKNRLRFDYWGQGTLVTVSS
VL: B1 VL with S23T, A33S, S35T, Y51S, N52D, S91T
B4: D8G M1 soluble monoclonal scFv (phage library clone) (scFv, V domains shown)
VH: B3 VH with G33S, G54D, G55A, S57N, K58T, N99M, R100L, L101H
VL: B1 VL with A33S, S35T, Y51A, N52D, H54Q, S91T, A94S
B5: D8G soluble monoclonal scFv (phage library clone) (scFv, V domains shown)
VH: B3 VH with G33S, G54D, S57N, K58T, N99M, R100L, L101H
VL: B1 VL with A33S, S35T, Y51A, N52D, H54Q, S91T, A94S
B6: D8G M3 soluble monoclonal scFv (phage library clone) (scFv, V domains shown)
VH: B3 VH with G33S, G54D, G55A, S57N, K58T, N99M, R100L, L101H
VL: B1 VL with A33S, S35T, Y51A, N52D, S53V, H54Q, S91T, A94S
B7: F6V soluble monoclonal scFv (phage library clone) (scFv, V domains shown)
VH: EVQLLESGGGLVQPGGSLRLSCAASGFTFSDYAMSWVRQAPGKGLEWVSGISPGGSNTYYADSVKGRFTISRDNSKNTLYLQMNSLRAEDTAVYYCAKDAWIARLLLFDYWGQGTLVTVSS
VL: B1 VL with S35T, S53N, H54K, S91T, A94D, N97S, A98G

This experiment has as its target recombinant human B7-H3 protein with C-terminal histidine tag (R&D Systems 2318-B3/CF) (human) (UniProt Q5ZPR3). Description: ELISA of soluble scFv on coated B7-H3-His; clones with absorbance at 450 nm of 1.0 or more.
On to B1, for which the binding entry was “binds”.

Turning to B2, the binding result was “binds”.

With B3, the binding result was “binds”.

With B4, the binding entry was “binds”.

As to B5, the binding entry was “binds”.

Consider B6, for which the binding result is “binds”.

As to B7, the binding result is recorded as “binds”.
